# Laboratory results taken from the supplement of paper PMC8728848.
# The other results are listed elsewhere or left out.
# B1: AT5G17240(42) (Arabidopsis thaliana), Q6NQJ8 (protein)
# chain: MDLEHQTMETFLRWAAEIGISDSIDSSRFRDSCLGHSLSVSDFPDAGGRGLGAARELKKGELVLKVPRKALMTTESIIAKDLKLSDAVNLHNSLSSTQILSVCLLYEMSKEKKSFWYPYLFHIPRDYDLLATFGNFEKQALQVEDAVWATEKATAKCQSEWKEAGSLMKELELKPKFRSFQAWLWASATISSRTLHVPWDSAGCLCPVGDLFNYDAPGDYSNTPQGPESANNVEEAGLVVETHSERLTDGGFEEDVNAYCLYARRNYQLGEQVLLCYGTYTNLELLEHYGFMLEENSNDKVFIPLETSLFSLASSWPKDSLYIHQDGKLSFALISTLRLWLIPQSQRDKSVMRLVYAGSQISVKNEILVMKWMSEKCGSVLRDLPTSVTEDTVLLHNIDKLQDPELRLEQKETEAFGSEVRAFLDANCLWDVTVLSGKPIEFSRKTSRMLSKWRWSVQWRLSYKRTLADCISYCNEKMNNLLGTQDRLRDL
# Assays:
# Assay in all cases: glycan array binding signal (z-score within array); higher = stronger binding
# Conditions in all cases: glycan notation: IUPAC condensed, linker removed
# [1] = biological target: Neu5Ac(a2-6)Gal(b1-4)GlcNAc(b1-3)Gal(b1-4)GlcNAc(b1-3)Gal(b1-4)GlcNAc(b1-2)Man(a1-3)[Neu5Ac(a2-6)Gal(b1-4)GlcNAc(b1-3)Gal(b1-4)GlcNAc(b1-3)Gal(b1-4)GlcNAc(b1-2)Man(a1-6)]GalNAc
# Summary of the method: (§1)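 The Consortium for Functional Glycomics database supplied 3228 glycan arrays, of which those lacking an available protein sequence were dropped. The binding signal, a within-array Z-score, was averaged across arrays of the same protein sequence and across linkers. Negative scores can be read as non-binding.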
# [2] = biological target: Neu5Ac(a2-6)Gal(b1-4)GlcNAc(b1-3)Gal(b1-4)GlcNAc(b1-3)GalNAc
# Summary of the method: as §1
# [3] = biological target: Neu5Ac(a2-6)Gal(b1-4)GlcNAc(b1-3)Gal(b1-4)GlcNAc(b1-3)[Neu5Ac(a2-6)Gal(b1-4)GlcNAc(b1-3)Gal(b1-4)GlcNAc(b1-6)]GalNAc
# Summary of the method: as §1
# [4] = biological target: Neu5Ac(a2-6)Gal(b1-4)GlcNAc(b1-3)Gal(b1-4)GlcNAc(b1-6)[Gal(b1-3)]GalNAc
# Summary of the method: as §1
# [5] = biological target: Neu5Ac(a2-6)Gal(b1-4)GlcNAc(b1-3)Gal(b1-4)[Fuc(a1-3)]GlcNAc(b1-3)Gal(b1-4)[Fuc(a1-3)]GlcNAc
# Summary of the method: as §1
# [6] = biological target: Neu5Ac(a2-6)Gal(b1-4)GlcNAc(b1-3)GalNAc
# Summary of the method: as §1
# [7] = biological target: Neu5Ac(a2-6)Gal(b1-4)GlcNAc(b1-3)[Neu5Ac(a2-6)Gal(b1-4)GlcNAc(b1-6)]GalNAc
# Summary of the method: as §1
# [8] = biological target: Neu5Ac(a2-6)Gal(b1-4)GlcNAc(b1-6)GalNAc
# Summary of the method: as §1
# [9] = biological target: Neu5Ac(a2-6)Gal(b1-4)GlcNAc(b1-6)[Gal(b1-3)GlcNAc(b1-3)]Gal(b1-4)Glc
# Summary of the method: as §1
# [10] = biological target: Neu5Ac(a2-6)Gal(b1-4)GlcNAc(b1-6)[Gal(b1-3)]GalNAc
# Summary of the method: as §1
# [11] = biological target: Neu5Ac(a2-6)Gal(b1-4)GlcNAc6S
# Summary of the method: as §1
# Neu5Ac(a2-6)GalNAc = biological target: Neu5Ac(a2-6)GalNAc
# Summary of the method: as §1
# [12] = biological target: Neu5Ac(a2-6)GalNAc(b1-4)GlcNAc
# Summary of the method: as §1
# [13] = biological target: Neu5Ac(a2-6)GalNAc(b1-4)GlcNAc6S
# Summary of the method: as §1
# [14] = biological target: Neu5Ac(a2-6)GlcNAc(b1-4)GlcNAc
# Summary of the method: as §1
# [15] = biological target: Neu5Ac(a2-6)GlcNAc(b1-4)GlcNAc(b1-4)GlcNAc
# Summary of the method: as §1
# Neu5Ac(a2-8)Neu5Ac = biological target: Neu5Ac(a2-8)Neu5Ac
# Summary of the method: as §1
# [16] = biological target: Neu5Ac(a2-8)Neu5Ac(a2-3)Gal(b1-3)GalNAc(b1-4)[Neu5Ac(a2-3)]Gal(b1-4)Glc
# Summary of the method: as §1
# [17] = biological target: Neu5Ac(a2-8)Neu5Ac(a2-3)Gal(b1-3)GalNAc(b1-4)[Neu5Ac(a2-8)Neu5Ac(a2-3)]Gal(b1-4)Glc
# Summary of the method: as §1
# [18] = biological target: Neu5Ac(a2-8)Neu5Ac(a2-3)Gal(b1-4)Glc
# Summary of the method: as §1
# [19] = biological target: Neu5Ac(a2-8)Neu5Ac(a2-3)Gal(b1-4)GlcNAc
# Summary of the method: as §1
# [20] = biological target: Neu5Ac(a2-8)Neu5Ac(a2-3)[Gal(b1-3)GalNAc(b1-4)]Gal(b1-4)Glc
# Summary of the method: as §1
# [21] = biological target: Neu5Ac(a2-8)Neu5Ac(a2-3)[GalNAc(b1-4)]Gal(b1-4)Glc
# Summary of the method: as §1
# [22] = biological target: Neu5Ac(a2-8)Neu5Ac(a2-8)Neu5Ac
# Summary of the method: as §1
# [23] = biological target: Neu5Ac(a2-8)Neu5Ac(a2-8)Neu5Ac(a2-3)Gal(b1-4)Glc
# Summary of the method: as §1
# [24] = biological target: Neu5Ac(a2-8)Neu5Ac(a2-8)Neu5Ac(a2-3)[Gal(b1-3)GalNAc(b1-4)]Gal(b1-4)Glc
# Summary of the method: as §1
# [25] = biological target: Neu5Ac(a2-8)Neu5Ac(a2-8)Neu5Ac(a2-3)[GalNAc(b1-4)]Gal(b1-4)Glc
# Summary of the method: as §1
# [26] = biological target: Neu5Ac(a2-8)Neu5Ac(a2-8)Neu5Ac(a2-8)Neu5Ac(a2-3)[GalNAc(b1-4)]Gal(b1-4)Glc
# Summary of the method: as §1
# [27] = biological target: Neu5Ac(a2-8)Neu5Gc(a2-3)Gal(b1-4)GlcNAc
# Summary of the method: as §1
# [28] = biological target: Neu5Ac(b2-6)Gal(b1-4)GlcNAc
# Summary of the method: as §1
# Neu5Ac(b2-6)GalNAc = biological target: Neu5Ac(b2-6)GalNAc
# Summary of the method: as §1
# [29] = biological target: Neu5Ac9Ac(a2-3)Gal(b1-3)GlcNAc
# Summary of the method: as §1
# [30] = biological target: Neu5Ac9Ac(a2-3)Gal(b1-4)GlcNAc
# Summary of the method: as §1
# [31] = biological target: Neu5Ac9Ac(a2-6)Gal(b1-4)GlcNAc
# Summary of the method: as §1
# [32] = biological target: Neu5Gc(a2-3)Gal(b1-3)GlcNAc
# Summary of the method: as §1
# [33] = biological target: Neu5Gc(a2-3)Gal(b1-3)[Fuc(a1-4)]GlcNAc
# Summary of the method: as §1
# Neu5Gc(a2-3)Gal(b1-4)Glc = biological target: Neu5Gc(a2-3)Gal(b1-4)Glc
# Summary of the method: as §1
# [34] = biological target: Neu5Gc(a2-3)Gal(b1-4)GlcNAc
# Summary of the method: as §1
# [35] = biological target: Neu5Gc(a2-3)Gal(b1-4)GlcNAc(b1-3)Gal(b1-4)GlcNAc(b1-2)Man(a1-3)[Neu5Gc(a2-3)Gal(b1-4)GlcNAc(b1-3)Gal(b1-4)GlcNAc(b1-2)Man(a1-6)]Man(b1-4)GlcNAc(b1-4)GlcNAc
# Summary of the method: as §1
# [36] = biological target: Neu5Gc(a2-3)Gal(b1-4)[Fuc(a1-3)]GlcNAc
# Summary of the method: as §1
# [37] = biological target: Neu5Gc(a2-6)Gal(b1-4)GlcNAc
# Summary of the method: as §1
# Neu5Gc(a2-6)GalNAc = biological target: Neu5Gc(a2-6)GalNAc
# Summary of the method: as §1
# [38] = biological target: Neu5Gc(a2-8)Neu5Ac(a2-3)Gal(b1-4)GlcNAc
# Summary of the method: as §1
# [39] = biological target: Neu5Gc(a2-8)Neu5Gc(a2-3)Gal(b1-4)GlcNAc
# Summary of the method: as §1
# [40] = biological target: Neu5Gc(a2-8)Neu5Gc(a2-3)Gal(b1-4)GlcNAc(b1-3)Gal(b1-4)GlcNAc
# Summary of the method: as §1
# [41] = biological target: Neu5Gc(a2-8)Neu5Gc(a2-6)Gal(b1-4)GlcNAc
# Summary of the method: as §1
# [42] = biological target: Neu5Gc(b2-6)Gal(b1-4)GlcNAc
# Summary of the method: as §1
binder,measurement,setting,value
B1,glycan array binding signal (z-score),[1],1.23
same,glycan array binding signal (z-score),[2],0.352
same,glycan array binding signal (z-score),[3],-0.161
same,glycan array binding signal (z-score),[4],-0.161
same,glycan array binding signal (z-score),[5],0.029
same,glycan array binding signal (z-score),[6],-0.543
same,glycan array binding signal (z-score),[7],0.768
same,glycan array binding signal (z-score),[8],-0.592
same,glycan array binding signal (z-score),[9],-0.215
same,glycan array binding signal (z-score),[10],-0.398
same,glycan array binding signal (z-score),[11],0.084
same,glycan array binding signal (z-score),Neu5Ac(a2-6)GalNAc,0.119
same,glycan array binding signal (z-score),[12],-0.798
same,glycan array binding signal (z-score),[13],0.369
same,glycan array binding signal (z-score),[14],0.14
same,glycan array binding signal (z-score),[15],-0.428
same,glycan array binding signal (z-score),Neu5Ac(a2-8)Neu5Ac,-0.265
same,glycan array binding signal (z-score),[16],0.226
same,glycan array binding signal (z-score),[17],0.009
same,glycan array binding signal (z-score),[18],0.309
same,glycan array binding signal (z-score),[19],-0.397
same,glycan array binding signal (z-score),[20],-0.295
same,glycan array binding signal (z-score),[21],0.186
same,glycan array binding signal (z-score),[22],-0.387
same,glycan array binding signal (z-score),[23],-1.04
same,glycan array binding signal (z-score),[24],-0.648
same,glycan array binding signal (z-score),[25],-0.683
same,glycan array binding signal (z-score),[26],-0.326
same,glycan array binding signal (z-score),[27],-0.142
same,glycan array binding signal (z-score),[28],-0.523
same,glycan array binding signal (z-score),Neu5Ac(b2-6)GalNAc,0.006
same,glycan array binding signal (z-score),[29],-0.271
same,glycan array binding signal (z-score),[30],-0.486
same,glycan array binding signal (z-score),[31],-0.046
same,glycan array binding signal (z-score),[32],-0.009
same,glycan array binding signal (z-score),[33],-0.907
same,glycan array binding signal (z-score),Neu5Gc(a2-3)Gal(b1-4)Glc,0.078
same,glycan array binding signal (z-score),[34],-0.479
same,glycan array binding signal (z-score),[35],-0.326
same,glycan array binding signal (z-score),[36],-0.299
same,glycan array binding signal (z-score),[37],0.865
same,glycan array binding signal (z-score),Neu5Gc(a2-6)GalNAc,-0.395
same,glycan array binding signal (z-score),[38],-0.804
same,glycan array binding signal (z-score),[39],-0.313
same,glycan array binding signal (z-score),[40],-0.317
same,glycan array binding signal (z-score),[41],0.146
same,glycan array binding signal (z-score),[42],0.103

# Some of the entries so far, with bars between the fields:
binder | measurement | setting | value
B1 | glycan array binding signal (z-score) | [26] | -0.326
same | glycan array binding signal (z-score) | [27] | -0.142
same | glycan array binding signal (z-score) | [28] | -0.523
same | glycan array binding signal (z-score) | Neu5Ac(b2-6)GalNAc | 0.006
